These are yes or no findings as the source states them, for the method shown. Binding seen in cells or lysates may run through a third protein. Some results given as binding are weak or reduced against the parent protein; the word gives no strength. For some assays here: Sequences can lack the tags named with a protein.

For one test, the target named is T1, Flag-FSP1 (UniProt Q8BUE4).
T1 sequence: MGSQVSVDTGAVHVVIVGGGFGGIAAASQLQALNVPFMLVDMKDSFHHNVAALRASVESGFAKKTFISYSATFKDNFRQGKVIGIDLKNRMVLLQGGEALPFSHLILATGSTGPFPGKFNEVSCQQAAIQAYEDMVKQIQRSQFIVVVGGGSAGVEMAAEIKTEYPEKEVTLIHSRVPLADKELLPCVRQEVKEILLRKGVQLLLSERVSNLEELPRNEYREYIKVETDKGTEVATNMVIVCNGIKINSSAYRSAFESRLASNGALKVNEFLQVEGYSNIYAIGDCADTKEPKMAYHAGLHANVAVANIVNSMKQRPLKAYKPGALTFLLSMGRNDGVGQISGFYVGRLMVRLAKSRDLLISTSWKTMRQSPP
The experiment in a line: co-IP; HEK293T cells co-transfected with Flag-FSP1 and HA-NDUFA1; immunoprecipitation with anti-Flag M2 beads to pull down Flag-FSP1.

In test [1] the target is T2, FSP1 in tubular epithelial cells (UniProt Q8BUE4).
T2 sequence: T1 sequence
The experiment in a line: proximity ligation; Duolink PLA in fixed, permeabilised tubular epithelial cells after 24 h of cisplatin treatment; primary antibodies 1:200 overnight at 4 °C, anti-rabbit PLUS and anti-mouse MINUS probes.

B1: HA-NDUFA1 (protein, UniProt O35683 1-70)
chain: MWFEILPGLAIMGVCLVIPGVSTAYIHKFTNGGKEKRVARVQYQWYLMERDRRISGVNRYYVSKGLENID
Regarding B1, in the test with Flag-FSP1, the binding entry was “binds”.

B2: NDUFA1 in tubular epithelial cells (protein, UniProt O35683 1-70)
chain: B1 chain
In the case of B2, in test [1], the binding result is “binds”.

(Values after article PMC11802792.)
